Measured values as given in article PMC5739762.
No constants are given. Whether binding was seen depends on the method and setting. In cells and extracts the contact can be indirect. Some entries that bind do so weakly or less than the wild type.

Chains of the proteins cited; added tags and fusions are not shown.
UniProt Q00987: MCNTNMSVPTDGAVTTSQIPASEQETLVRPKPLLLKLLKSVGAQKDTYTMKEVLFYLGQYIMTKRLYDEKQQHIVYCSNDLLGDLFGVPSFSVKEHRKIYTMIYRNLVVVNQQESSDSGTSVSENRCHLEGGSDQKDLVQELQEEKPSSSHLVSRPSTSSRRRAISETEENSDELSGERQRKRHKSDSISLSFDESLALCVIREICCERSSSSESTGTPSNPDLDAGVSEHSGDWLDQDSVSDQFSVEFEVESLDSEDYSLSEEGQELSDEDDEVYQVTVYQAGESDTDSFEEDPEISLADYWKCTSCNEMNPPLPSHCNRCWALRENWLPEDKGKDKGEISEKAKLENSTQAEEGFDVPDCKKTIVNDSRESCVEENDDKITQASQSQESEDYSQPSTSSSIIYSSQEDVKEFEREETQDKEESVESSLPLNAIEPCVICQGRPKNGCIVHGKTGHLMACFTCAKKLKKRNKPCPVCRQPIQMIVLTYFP
UniProt Q06187: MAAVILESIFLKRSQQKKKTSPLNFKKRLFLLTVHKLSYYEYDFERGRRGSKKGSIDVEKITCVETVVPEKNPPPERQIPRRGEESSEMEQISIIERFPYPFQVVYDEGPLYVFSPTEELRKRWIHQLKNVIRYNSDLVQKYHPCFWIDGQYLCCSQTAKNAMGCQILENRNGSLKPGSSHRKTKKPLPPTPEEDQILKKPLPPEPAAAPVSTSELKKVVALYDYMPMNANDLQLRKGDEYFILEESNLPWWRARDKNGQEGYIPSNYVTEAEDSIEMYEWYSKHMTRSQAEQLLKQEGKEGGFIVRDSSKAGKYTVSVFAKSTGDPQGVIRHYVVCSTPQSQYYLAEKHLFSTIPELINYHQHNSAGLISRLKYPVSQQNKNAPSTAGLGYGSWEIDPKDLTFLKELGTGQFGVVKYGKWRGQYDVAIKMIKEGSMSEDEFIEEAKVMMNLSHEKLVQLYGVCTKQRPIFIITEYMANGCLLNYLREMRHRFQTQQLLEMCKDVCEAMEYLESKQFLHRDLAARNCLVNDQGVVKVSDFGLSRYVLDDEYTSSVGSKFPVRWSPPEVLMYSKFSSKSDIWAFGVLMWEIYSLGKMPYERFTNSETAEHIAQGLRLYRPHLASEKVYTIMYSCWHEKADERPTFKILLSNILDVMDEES

Target: FLAG-tagged MDM2 (UniProt Q00987)
Assay: co-IP; lysates of HCT116 transfected with BTK and FLAG-MDM2; lysis buffer PBS, 50 mM NaCl, 1% NP-40, 1 mM PMSF, 4°C; IP with anti-FLAG or IgG overnight, protein A/G agarose; blots with BTK and FLAG antibodies

## Bruton's Tyrosine Kinase (BTK) (from UniProt Q06187 1-659) (enzyme)
  binding: binds
